Test results taken from article PMC7508583, “Discovery and Preclinical Development of Antigiardiasis Fumagillol Derivatives” (Antimicrobial Agents and Chemotherapy, 2020).

Test: in vitro
Details: human
From the text: Next, we tested the permeation of the compounds across polarized Caco-2 cell monolayers, a method that is widely used as an in vitro model of the human small intestinal mucosa to predict the absorption of orally administered drugs ([63], [64]). With noninvasive intestinal infections, there is no need to establish a high plasma concentration. Since a high rate of uptake through the host gut lining could increase compound toxicity, we sought to reduce gut absorption. […] Both apical-to-basal and basal-to-apical permeation values were measured to obtain information about efflux. […] The efflux machinery is currently unknown.
Passage 36 Caco-2 cells were used. […]
For sample processing, a single-point calibration curve in HBSS buffer with 2% BSA was used. […] One hundred microliters of the supernatant was diluted with 200 μl of water and analyzed by LC-MS/MS (with a Shimadzu ultrafast liquid chromatograph and an API 4000 LC-MS/MS system).
The apparent permeation coefficients (Papp) were calculated as Papp = (dQ/dT) × (1/C0) × (1/A), where dQ is the amount permeated to the receiver compartment of the 96-well plate, dT is the time of compound incubation, C0 is the initial compound concentration in the donor compartment of the well, and A is the surface area of the monolayer.

Structure (SMILES): CC(C)NCC(O)COc1ccc(CC(N)=O)cc1 (centres unmarked) [Atenolol]
- efflux ratio at 120 min, 10 µM (Caco-2, pH 7.4): 0.45
- Papp at 120 min, 10 µM (Caco-2, pH 7.4, Mean ± SE Papp, apical to basal, Caco-2, 10 μM, 120 min): 0.32 ×10⁻⁶ cm/s
